From patent US20160031955A1 (INSERM INSTITUT NATIONAL DE LA SANT ET DE LA RECHERCHE M …, published 2016) come the findings set out here.

By UniProt entry, the sequences of proteins in these tests, tags left out. Residues count along the entry.
UniProt O95831, residues 55-613: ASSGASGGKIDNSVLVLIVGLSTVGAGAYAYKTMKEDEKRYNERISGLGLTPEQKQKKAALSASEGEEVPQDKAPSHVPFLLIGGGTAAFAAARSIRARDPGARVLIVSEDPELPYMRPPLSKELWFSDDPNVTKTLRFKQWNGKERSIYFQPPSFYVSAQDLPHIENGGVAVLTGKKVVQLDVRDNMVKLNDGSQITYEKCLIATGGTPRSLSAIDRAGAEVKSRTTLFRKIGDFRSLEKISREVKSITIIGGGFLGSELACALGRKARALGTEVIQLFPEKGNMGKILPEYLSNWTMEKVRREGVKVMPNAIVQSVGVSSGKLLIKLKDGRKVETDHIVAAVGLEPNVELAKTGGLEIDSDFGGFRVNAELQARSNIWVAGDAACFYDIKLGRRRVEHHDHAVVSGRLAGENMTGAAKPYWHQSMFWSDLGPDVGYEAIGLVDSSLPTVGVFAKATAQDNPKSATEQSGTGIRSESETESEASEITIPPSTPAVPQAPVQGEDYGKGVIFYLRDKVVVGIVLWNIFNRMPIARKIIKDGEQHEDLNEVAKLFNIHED

Results are given in words; binding and its absence hold for the method and conditions named. In cells and extracts the contact can be indirect. These calls come from enrichment with a bait or labelling near it, and not all partners need be listed.

In experiment [1] the target is endogenous AIF (apoptosis inducing factor) contained in human cell lysates (human) (UniProt O95831). The experiment in a line: immunoprecipitation of AIF, SDS/PAGE, mass spectrometry.
For experiment [2] the target is unchanged. In words: immunoprecipitation of AIF from human cervical cancer cells, mass spectrometry.

B1: endogenous human MIA40 isoform 1 (CHCHD4.1) (protein)
chain: MSYCRQEGKDRIIFVTKEDHETPSSAELVADDPNDPYEEHGLILPNGNINWNCPCLGGMASGPCGEQFKSAFSCFHYSTEEIKGSDCVDQFRAMQECMQKYPDLYPQEDEDEEEEREKKPAEQAEETAPIEATATKEEEGSS
Consider B1, for which the binding entry in experiment [1] and in experiment [2] was “binds” throughout.
